# Measurements as given in patent US9920058B2, “Molecules with potent DHFR binding affinity and antibacterial activity” (Georgia Tech Research Corporation, priority 2013, dated 2018).
# For at least one compound, name, drawing or mass did not settle the structure.
# Biological target: T1, TrpRS (Homo sapiens, UniProt P23381)
# T1 sequence (P23381 1-471): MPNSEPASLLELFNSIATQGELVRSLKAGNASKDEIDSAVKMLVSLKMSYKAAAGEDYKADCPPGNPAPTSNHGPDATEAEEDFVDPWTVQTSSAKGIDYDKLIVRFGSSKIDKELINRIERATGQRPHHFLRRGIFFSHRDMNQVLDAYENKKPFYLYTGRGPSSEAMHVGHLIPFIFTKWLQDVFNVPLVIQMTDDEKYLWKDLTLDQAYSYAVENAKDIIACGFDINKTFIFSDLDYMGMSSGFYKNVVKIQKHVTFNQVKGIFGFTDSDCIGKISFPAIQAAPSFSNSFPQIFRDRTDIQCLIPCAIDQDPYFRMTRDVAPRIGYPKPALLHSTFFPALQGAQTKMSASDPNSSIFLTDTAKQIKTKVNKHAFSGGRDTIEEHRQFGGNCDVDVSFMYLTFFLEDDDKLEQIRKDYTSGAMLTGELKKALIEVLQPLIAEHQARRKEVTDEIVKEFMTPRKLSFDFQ
# Assay: Thermal shift binding to TrpRS
# Details: in words
smiles,measurement,value
CCN(CC)CCNC(=O)c1c(C)[nH]c(/C=C2\C(=O)Nc3ccc(F)cc32)c1C [Sunitinib],binding to TrpRS,high-affinity
